Values from PubChem BioAssay AID1508597 (Cure First, 2020)
Assay: 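Survival screen with siRNA in ovarian cancer cells derived from patients, with or without rucaparib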 (primary screen). Cells: human ovarian carcinoma lines grown from tumours: OCI-P5x (papillary serous) and OCI-C5x (clear cell). Reagent: siRNA pool against human genes, 1.25 pmol siRNA per well. Timing: 72 h or 96 h, depending on the cell culture. Treatment: rucaparib 20 µM (about IC30) or vehicle, present until read-out. Measurement: 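ATP luminescence measured at 72 or 96 h according to the culture, then normalised and expressed as percent viability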. Direction: viability, normalised: higher = more viable cells remaining. Call rule: 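Active when normalised viability falls below 80 percent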. Calls: active = viability under 80%; inactive = viability 80% or more.
In all, the deposit lists about 2,100 reagents; below is a random part of them. 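Calls flag viability under 80% in either arm, not effects specific to rucaparib; the reference for percent is not stated.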 Entries without a mark were called inactive. No sequences are given here. The record does not give: the 100% reference.

target,rucaparib or vehicle,cell line,technical replicate,"viability, normalised (%)"
ATF7IP (activating transcription factor 7 interacting protein),Rucaparib,OCI-C5x (clear cell),1,60.3 (active)
ATF7IP (activating transcription factor 7 interacting protein),Rucaparib,OCI-C5x (clear cell),2,58.5 (active)
ATF7IP (activating transcription factor 7 interacting protein),Rucaparib,OCI-C5x (clear cell),3,58.1 (active)
ATF7IP (activating transcription factor 7 interacting protein),Rucaparib,OCI-P5x (serous),1,78.6 (active)
ATF7IP (activating transcription factor 7 interacting protein),Rucaparib,OCI-P5x (serous),2,74.7 (active)
ATF7IP (activating transcription factor 7 interacting protein),Rucaparib,OCI-P5x (serous),3,77.7 (active)
ATF7IP (activating transcription factor 7 interacting protein),Vehicle,OCI-C5x (clear cell),1,57.2 (active)
ATF7IP (activating transcription factor 7 interacting protein),Vehicle,OCI-C5x (clear cell),2,67 (active)
ATF7IP (activating transcription factor 7 interacting protein),Vehicle,OCI-C5x (clear cell),3,56.5 (active)
ATF7IP (activating transcription factor 7 interacting protein),Vehicle,OCI-P5x (serous),1,59.8 (active)
ATF7IP (activating transcription factor 7 interacting protein),Vehicle,OCI-P5x (serous),2,68.3 (active)
ATF7IP (activating transcription factor 7 interacting protein),Vehicle,OCI-P5x (serous),3,79.3 (active)
DGKZ (diacylglycerol kinase zeta),Rucaparib,OCI-C5x (clear cell),1,87
DGKZ (diacylglycerol kinase zeta),Rucaparib,OCI-C5x (clear cell),2,42.3 (active)
DGKZ (diacylglycerol kinase zeta),Rucaparib,OCI-C5x (clear cell),3,71.3 (active)
DGKZ (diacylglycerol kinase zeta),Rucaparib,OCI-P5x (serous),1,114
DGKZ (diacylglycerol kinase zeta),Rucaparib,OCI-P5x (serous),2,129
DGKZ (diacylglycerol kinase zeta),Rucaparib,OCI-P5x (serous),3,91.6
DGKZ (diacylglycerol kinase zeta),Vehicle,OCI-C5x (clear cell),1,68.2 (active)
DGKZ (diacylglycerol kinase zeta),Vehicle,OCI-C5x (clear cell),2,69.9 (active)
DGKZ (diacylglycerol kinase zeta),Vehicle,OCI-C5x (clear cell),3,48.3 (active)
DGKZ (diacylglycerol kinase zeta),Vehicle,OCI-P5x (serous),1,103
DGKZ (diacylglycerol kinase zeta),Vehicle,OCI-P5x (serous),2,74.4 (active)
DGKZ (diacylglycerol kinase zeta),Vehicle,OCI-P5x (serous),3,95.4

As entered above.
ATF7IP (activating transcription factor 7 interacting protein), rucaparib or vehicle Vehicle, cell line OCI-P5x (serous), technical replicate 3, viability, normalised (%) = 79.3 (active)
ATF7IP (activating transcription factor 7 interacting protein), rucaparib or vehicle Rucaparib, cell line OCI-P5x (serous), technical replicate 2, viability, normalised (%): 74.7 (active)
Result of DGKZ (diacylglycerol kinase zeta), rucaparib or vehicle Vehicle, cell line OCI-C5x (clear cell), technical replicate 1 under “viability, normalised (%)”: 68.2 (active)
ATF7IP (activating transcription factor 7 interacting protein), rucaparib or vehicle Vehicle, cell line OCI-C5x (clear cell), technical replicate 3, viability, normalised (%) → 56.5 (active)
Value of DGKZ (diacylglycerol kinase zeta), rucaparib or vehicle Vehicle, cell line OCI-C5x (clear cell), technical replicate 3 under “viability, normalised (%)”: 48.3 (active)

More records:
target,rucaparib or vehicle,cell line,technical replicate,"viability, normalised (%)"
HDAC4 (histone deacetylase 4),Rucaparib,OCI-C5x (clear cell),1,59.5 (active)
HDAC4 (histone deacetylase 4),Rucaparib,OCI-C5x (clear cell),2,52.5 (active)
HDAC4 (histone deacetylase 4),Rucaparib,OCI-C5x (clear cell),3,62.1 (active)
HDAC4 (histone deacetylase 4),Rucaparib,OCI-P5x (serous),1,81.5
HDAC4 (histone deacetylase 4),Rucaparib,OCI-P5x (serous),2,66.1 (active)
HDAC4 (histone deacetylase 4),Rucaparib,OCI-P5x (serous),3,84.1
HDAC4 (histone deacetylase 4),Vehicle,OCI-C5x (clear cell),1,49.5 (active)
HDAC4 (histone deacetylase 4),Vehicle,OCI-C5x (clear cell),2,64.7 (active)
HDAC4 (histone deacetylase 4),Vehicle,OCI-C5x (clear cell),3,82.1
HDAC4 (histone deacetylase 4),Vehicle,OCI-P5x (serous),1,72.7 (active)
HDAC4 (histone deacetylase 4),Vehicle,OCI-P5x (serous),2,86.3
HDAC4 (histone deacetylase 4),Vehicle,OCI-P5x (serous),3,86.8
ALPK2 (alpha kinase 2),Rucaparib,OCI-C5x (clear cell),1,80.5
ALPK2 (alpha kinase 2),Rucaparib,OCI-C5x (clear cell),2,76 (active)
ALPK2 (alpha kinase 2),Rucaparib,OCI-C5x (clear cell),3,73.2 (active)
ALPK2 (alpha kinase 2),Rucaparib,OCI-P5x (serous),1,129
ALPK2 (alpha kinase 2),Rucaparib,OCI-P5x (serous),2,118
ALPK2 (alpha kinase 2),Rucaparib,OCI-P5x (serous),3,131
ALPK2 (alpha kinase 2),Vehicle,OCI-C5x (clear cell),1,82.2
ALPK2 (alpha kinase 2),Vehicle,OCI-C5x (clear cell),2,71 (active)
ALPK2 (alpha kinase 2),Vehicle,OCI-C5x (clear cell),3,77.6 (active)
ALPK2 (alpha kinase 2),Vehicle,OCI-P5x (serous),1,96.7
ALPK2 (alpha kinase 2),Vehicle,OCI-P5x (serous),2,115
ALPK2 (alpha kinase 2),Vehicle,OCI-P5x (serous),3,107
GAK (cyclin G associated kinase),Rucaparib,OCI-C5x (clear cell),1,29.5 (active)
GAK (cyclin G associated kinase),Rucaparib,OCI-C5x (clear cell),2,35.5 (active)
GAK (cyclin G associated kinase),Rucaparib,OCI-C5x (clear cell),3,48.5 (active)
GAK (cyclin G associated kinase),Rucaparib,OCI-P5x (serous),1,55.8 (active)
GAK (cyclin G associated kinase),Rucaparib,OCI-P5x (serous),2,78.4 (active)
GAK (cyclin G associated kinase),Rucaparib,OCI-P5x (serous),3,56.5 (active)
GAK (cyclin G associated kinase),Vehicle,OCI-C5x (clear cell),1,46.3 (active)
GAK (cyclin G associated kinase),Vehicle,OCI-C5x (clear cell),2,54.6 (active)
GAK (cyclin G associated kinase),Vehicle,OCI-C5x (clear cell),3,61.6 (active)
GAK (cyclin G associated kinase),Vehicle,OCI-P5x (serous),1,82.2
GAK (cyclin G associated kinase),Vehicle,OCI-P5x (serous),2,70.2 (active)
GAK (cyclin G associated kinase),Vehicle,OCI-P5x (serous),3,56.8 (active)
